In PMC12040169 (PLOS Biology, 2025):
This is one part of the list.

test system: T1, CTL2-GFP (C. trachomatis L2/434/Bu, GFP-expressing); set-up: species or system HeLa; Intracellular C. trachomatis growth in HeLa cells, bulk GFP fluorescence relative to DMSO; settings: bulk GFP, single well; 28.5 h, 10 µM; inhibitor
T1 construct: L2/434/Bu, GFP-expressing

Compound	% of control remaining
NS(=O)(=O)c1ccc(CCNC2CC(=O)N(Cc3cccs3)C2=O)cc1 (stereo not shown) [CBK266579]	188.787%
O=c1c([N+](=O)[O-])c(O)c2ccccc2n1-c1ccccc1 [CBK115316]	107.491%
O=C(C1=C(O)C(=O)N(CCCn2ccnc2)C1c1ccncc1)c1ccc(F)cc1 (stereo not shown) [CBK264601]	123.045%
CC(=O)c1ccc(NC(=O)C2C3C=CC(C3=C(c3ccccc3)c3ccccc3)C2C(=O)O)cc1 (stereo not shown) [CBK265696]	126.286%
COc1nccnc1N1CCN(Cc2ccc(Cl)c(Cl)c2)CC1 [CBK084209]	117.234%
O=C(O)CCC(=O)Nc1cc(C(F)(F)F)ccc1N1CCCC1 [CBK057434]	104.393%
Cc1nn2c(CN(C(=O)c3ccccc3)c3ccccc3)nnc2c2ccccc12 [CBK268084]	89.5253%
O=C(NCCCN1CCOCC1)Nc1cccc(Cl)c1Cl [CBK016286]	153.736%
O=C(COc1ccccc1)Nc1cnc(-c2ccc(F)cc2)c(-c2ccsc2)n1 [CBK036958]	109.128%
CN1CCN(S(=O)(=O)c2ccc3c4c(cccc24)C(=O)N3)CC1 [CBK266647]	138.598%
Cc1nn(CC(=O)N2CCC(C)CC2)c(=O)c2cc3ccsc3n12 [CBK284081]	136.973%
CCc1nccn1C(C)C(=O)Nc1ccc2ncn(C)c2c1 (stereo not shown) [CBK281745]	116.463%
COc1ccc(OC)c(S(=O)(=O)N2CCCC(C(=O)O)C2)c1 (stereo not shown) [CBK269225]	133.391%
Cc1ccc2[nH]c(SCC(=O)NC3CCCC3)nc2c1 [CBK057983]	93.0649%
O=C(CN1CCC(c2ccccc2F)CC1)Nc1nccs1 [CBK283579]	98.5572%
O=C1c2ccccc2C(=O)N1CN(CCc1ccc(Cl)cc1)CN1C(=O)c2ccccc2C1=O [CBK225934]	100%
Nc1nc2c([C@H]3C[C@@H](O)[C@@H](CO)O3)c[nH]c2c(=O)[nH]1 [CBK201194]	147.489%
c1ccc2c(c1)CCN2c1ncnc2[nH]cnc12 [CBK291104]	150.596%
CN(C)c1ccc(-c2nc(N(C)C)n(C)n2)cn1 [CBK306858]	140.081%
Cc1ccccc1-n1sc(=O)n(Cc2ccc(F)cc2)c1=O [CBK113605]	83.6272%

2 successive records from above, for reference:
Compound	% of control remaining
Nc1nc2c([C@H]3C[C@@H](O)[C@@H](CO)O3)c[nH]c2c(=O)[nH]1 [CBK201194]	147.489%
c1ccc2c(c1)CCN2c1ncnc2[nH]cnc12 [CBK291104]	150.596%

Next part.

Compound	% of control remaining
CCCCCNC(=O)N1CCN(CC(=O)OCC)CC1 [CBK044786]	103.595%
Cn1c(NCc2ccccn2)nc2ccccc21 [CBK268544]	118.918%
C=C(C)Cn1c(=O)c2c(nc3[nH]c(C)c(C)n32)n(C)c1=O [CBK288184]	116.602%
O=C(N/N=C/C=N/NC(=O)c1ccccc1O)c1ccccc1O [CBK261430]	100%
CCC(CC)n1nc(C(=O)NC2(C#N)CCSC2)cc1C (stereo not shown) [CBK305111]	102.95%
O=C(c1sc2cc(Cl)ccc2c1Cl)N1CCN(Cc2ccc3c(c2)OCO3)CC1 [CBK074431]	86.6502%
N#Cc1ccc(-c2cnc(N)c(-c3ccccc3Cl)n2)cc1 [CBK113660]	126.019%
Cc1cc(S(=O)(=O)NCCCn2ccnc2)c(C)cc1Br [CBK269525]	97.7844%
Cc1ccc([N+](=O)[O-])cc1S(=O)(=O)NCC(=O)O [CBK266234]	178.775%
Cc1ccc(Cl)c(OC(C)C(=O)N2CCC(CC(N)=O)CC2)c1 (stereo not shown) [CBK305762]	129.718%
Clc1ccc(-c2ccc(N3CCN(CCN4CCCC4)CC3)nc2)cc1 [CBK037623]	166.007%
CN(C)CC(O)CN1C(=O)NC(C)(C)C1=O (stereo not shown) [CBK027078]	121.419%
OCC1CCCN1c1nccnc1-c1ccoc1 (stereo not shown) [CBK089057]	180.875%
O=C(O)CC(C(=O)Nc1ccccc1)N1CCOCC1 (stereo not shown) [CBK287182]	88.4854%
O=C1Nc2ccccc2C12CC(c1ccccc1Cl)=NN2 (stereo not shown) [CBK288004]	88.276%
O=C(CSc1nnc(-c2ccncc2)n1-c1ccccc1)N/N=C/c1coc2ccccc2c1=O [CBK262866]	118.57%
Cc1nc2cc(C(=O)NCC(C)(C)N3CCCCC3)ccc2n1C [CBK281862]	156.424%
CCn1nc(C)cc1C(=O)N1Cc2cnn(Cc3ccc(F)cc3)c2C1 [CBK306574]	116.819%
O=C1CCc2cc(S(=O)(=O)NC(c3ccccc3)c3ccccc3)cc3c2N1CCC3 [CBK294418]	111.074%
COCC1CCN(c2c(F)cc(C#N)cc2F)CC1 [CBK306244]	106.101%
